According to PubChem BioAssay AID1347075 (National Center for Advancing Translational Sciences (NCATS), 2019):
In all, about 400,000 compounds went through this assay and about 5,500 (1.4%) were called active. Inconclusive means that the source gave no clear call. Such entries were picked first, then a sample of the others. Calls follow the shape of the dose curve; as a rule, active = well fitted cell-killing curve with a large enough effect; inconclusive = small, poorly fitted or top-dose-only effect, or effect the other way; inactive = flat fitted curve, though single readings scatter. Where the call is inconclusive, the potency comes from a doubtful curve fit.
% is scaled to controls: 0 for no effect and ±100 for the full control effect; potency is read from the fitted curve at half-maximal effect.

Test: qHTS assay for MDR1-selective chemotherapeutics: Primary screen using the parental adenocarcinoma cell KB-3-1; also: nearly all actives have a fitted effect of over 60% in size
Conditions: KB-3-1 viability, CellTiter-Glo ATP luminescence, 72 h; activity change, negative = cytotoxic: at 46.1 µM (top of the series)
How it was run: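 KB-3-1 cells, DMEM (no phenol red) + 10% FBS; compound by pin transfer, 72 h, 37 °C. Readout: CellTiter-Glo luminescence after 10 min. Data normalized, curve-fitted.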
In the case of CC1(C)N=C(N)N=C(N)N1c1ccc(OCC(=O)Nc2ccccc2)c(Cl)c1, the Potency is reported as inconclusive: 3.66 µM [cytotoxic, full curve]. In the case of COc1ccc(Cc2c(-c3cccc(Cl)c3)nc3c(C)cc(Br)cn23)c(C)c1, the Potency is reported as inconclusive: 18.4 µM [cytotoxic, single point]. For Fc1ccc(Cn2nnnc2C(c2ccc(Cl)cc2)N2CCSCC2)cc1 (stereo not drawn), the Potency was inconclusive: 29.1 µM [cytotoxic, single point]. In the case of CCS(=O)(=O)c1ccc(N=Nc2ccc(O)c3ncccc23)c(OC)c1, the Potency is reported as active: 14.6 µM. With O=C(NCc1nc2ccccc2[nH]1)C1=C[C@H](c2csc3ccccc23)C[C@H](OCc2ccc(CO)cc2)O1 the Potency was inconclusive: 29.1 µM [cytotoxic, single point]. In the case of Cc1cc(C)c(OCC(O)CN2CCN(c3ccccn3)CC2)c(C)c1 (stereo not drawn), the Potency is reported as inconclusive: 2.06 µM [cytotoxic, full curve]. For CCc1cccc(CC)c1NC(=O)CSc1nc2ccc(N3C(=O)C4C5C=CC(C5)C4C3=O)cc2s1 (stereo not drawn), the Potency was inconclusive: 14.6 µM [cytotoxic, partial curve, poor fit]. With O=C(c1ccc([N+](=O)[O-])o1)N1CCN(c2nc3c(Cl)cccc3s2)CC1 the Potency was inconclusive: 4.11 µM [cytotoxic, single point]. With CCOC(=O)c1cccc(NC(=O)Nc2cc(OC)ccc2OC)c1 the “activity change, negative = cytotoxic” value was inactive: -6.41%. In the case of CC(=O)Oc1ccc(N(C(C)=O)S(=O)(=O)c2ccc(C)cc2)c2ccccc12, the Potency is reported as inconclusive: 16.4 µM [cytotoxic, single point]. In the case of Cc1onc(-c2c(F)cccc2Cl)c1C(=O)Nc1sc2c(c1C(N)=O)CCC2, the Potency is reported as inconclusive: 35.5 µM [cytotoxic, single point]. In the case of CCOc1ncccc1C(=O)Nc1nnc(C2CC2)s1, the Potency is reported as inconclusive: 3.26 µM [rising, full curve, poor fit]. For CCCCn1c(SCC(=O)Nc2ccc(NC(C)=O)cc2)nc2ccccc2c1=O, the activity change, negative = cytotoxic was inconclusive: -42.1%. With N#C/C(=N\Nc1cccc(Cl)c1)C(=O)c1ccccc1 the Potency was active: 16.4 µM. For Oc1ccc(-c2n[nH]c(C(F)(F)F)c2-c2ccccc2)c(O)c1, the Potency was inconclusive: 2.06 µM [cytotoxic, full curve]. In the case of COc1ccccc1-c1nc(C#N)c(N2CCc3ccccc3C2)o1, the Potency is reported as inconclusive: 16.4 µM [cytotoxic, single point]. In the case of Brc1ccc(C2=Nn3c(nnc3-c3n[nH]c4c3CCC4)SC2)cc1, the Potency is reported as active: 0.326 µM. With CN(C(=O)c1ccc(NC(=O)Cc2ccc(NC(=O)C3CCCN(C(=O)CCc4ccccc4)C3)cc2)cc1)C1CCCC1 (stereo not drawn) the Potency was inconclusive: 29.1 µM [cytotoxic, single point]. For Cc1ccc(N(CC(O)Cn2c3ccccc3c3ccccc32)S(C)(=O)=O)cc1 (stereo not drawn), the Potency was inconclusive: 4.11 µM [rising, full curve, poor fit]. For O=C(C1CCCCC1)N1CCN=C1SCc1cccc([N+](=O)[O-])c1, the Potency was inconclusive: 16.4 µM [rising, single point]. In the case of CCOC(=O)C1(CCCc2ccccc2)CCN(Cc2cn(CC)nc2C)CC1, the Potency is reported as active: 20.6 µM. For COc1cc2cc(c1Cl)N(C)C(=O)CC(OC(=O)C(C)N(C)C(C)=O)C1(C)OC1C(C)C1CC(O)(NC(=O)O1)C(OC)C=CC=C(C)C2 (stereo not drawn), the Potency was inconclusive: 58 µM [cytotoxic, full curve, poor fit]. With COc1cccc(CNc2nc(NCc3ccccc3)nc3ccsc23)c1 the Potency was inconclusive: 29.1 µM [cytotoxic, single point]. For CCOC(=O)c1[nH]c2c(c1C)C(=O)CC(c1ccc(F)cc1)C2 (stereo not drawn), the Potency was inconclusive: 0.651 µM [cytotoxic, full curve, poor fit]. With COCCCNc1nc2ccccc2nc1NS(=O)(=O)c1cc(Cl)ccc1Cl the Potency was inconclusive: 29.1 µM [cytotoxic, single point]. In the case of CC(C)c1nnc(NC(=O)c2nc(S(=O)(=O)Cc3ccccc3)ncc2Cl)s1, the Potency is reported as inconclusive: 23.1 µM [cytotoxic, single point]. With COc1ccc(O)c(CN2CCC(n3nccc3NC(=O)CCOc3ccccc3)CC2)c1 the Potency was inconclusive: 0.116 µM [cytotoxic, full curve, poor fit]. For CCOc1ccc(NC(=O)CN2CCN(CC(=O)Nc3cccc(F)c3)CC2)cc1, the “activity change, negative = cytotoxic” value was inactive: 0.992%. For O=C(CSc1nc2sc3c(c2c(=O)n1-c1ccccc1)CCCC3)NCc1ccco1, the “activity change, negative = cytotoxic” value was inactive: 4.79%. With CC1=CC(=O)C(C(C)C)=C/C1=N/OC(=O)c1cccc([N+](=O)[O-])c1 the “activity change, negative = cytotoxic” value was inactive: 0.984%. In the case of CCOC(=O)N1CCc2c(sc(NCc3sccc3C)c2C(=O)Nc2ccccc2OCC)C1, the “activity change, negative = cytotoxic” value is reported as inactive: -3.83%. For CC(C)(C)OC(=O)N1CCC[C@H]1c1nnc(SCc2c(Cl)cccc2Cl)o1, the Potency was inconclusive: 5.8 µM [cytotoxic, partial curve, poor fit]. For CCNc1ccc(Br)cc(C(=O)/C=C/c2c(Cl)cccc2Cl)c1=O, the Potency was inconclusive: 2.91 µM [cytotoxic, partial curve, poor fit]. For Fc1ccc(/C=N/NC(=S)Nc2ccc(Cl)cc2Cl)cc1, the Potency was active: 5.17 µM. With O=C(NC(=S)Nc1ccc(N2CCCCC2)c(Cl)c1)c1ccc2c(c1)OCCO2 the Potency was active: 1.16 µM. In the case of Cc1ccc(S(=O)(=O)NC(=NC(C)C(=O)O)c2ccccc2)cc1 (stereo not drawn), the “activity change, negative = cytotoxic” value is reported as inactive: 15.4%. With CC(=O)NC12CC3CC(C1)CC(C(=O)NCC(=O)Nc1c(C)cc(C)cc1C)(C3)C2 the “activity change, negative = cytotoxic” value was inactive: -3.86%. For Cc1cccc(Nc2nc(-c3c(C)nc4ccccn34)cs2)c1, the Potency was inconclusive: 29.1 µM [cytotoxic, single point]. With C#CC[N+](C)(C)CC#Cc1ccc(C)cc1 the Potency was active: 11.6 µM. For O=C(COc1ccc2ccccc2c1)Nc1ccccc1C(=O)O, the Potency was inconclusive: 20.6 µM [cytotoxic, single point]. For Cc1cc(C)c2cc(CN(CCN3CCCC3)C(=O)Nc3ccc(F)cc3)c(=O)[nH]c2c1, the Potency was inconclusive: 2.91 µM [cytotoxic, full curve, poor fit]. In the case of CN1CCN(c2ccccc2NC(=O)c2ccc(-c3ccc(Cl)cc3Cl)o2)CC1, the Potency is reported as inconclusive: 29.1 µM [cytotoxic, single point]. In the case of O=C(Nc1cccc(-c2cn3ccccc3n2)c1)c1cccs1, the Potency is reported as inconclusive: 20.6 µM [rising, partial curve]. For COc1ccc(-c2nc(-c3ccccc3)nc(N3CCN(C)CC3)c2C#N)cc1, the Potency was inconclusive: 29.1 µM [cytotoxic, single point]. In the case of Cc1ccnc(NC(=O)CCC(=O)N(CC(=O)NC(C)(C)C)c2ccc(F)c(Cl)c2)c1, the “activity change, negative = cytotoxic” value is reported as inactive: -4.11%. For CCOC(=O)Cc1[nH]nc2c1C(c1ccsc1)C(C#N)=C(N)O2 (stereo not drawn), the Potency was inconclusive: 32.6 µM [cytotoxic, single point]. For CC(C)Cc1ccc(C(C)CC2=CCC(CN(C)C)C2=O)cc1 (stereo not drawn), the Potency was inconclusive: 29.1 µM [cytotoxic, single point]. With Cc1ccc(S(=O)(=O)NCC(=O)N(CC(=O)NCC2CCCO2)Cc2ccc(Cl)cc2)cc1 (stereo not drawn) the Potency was inconclusive: 29.1 µM [rising, single point]. For CCOC(=O)c1[nH]c(C)c(C(=O)N2CCc3ccccc32)c1C, the Potency was active: 0.326 µM. With N#Cc1c(/N=C/c2ccccc2)oc(-c2ccccc2)c1-c1ccccc1 the “activity change, negative = cytotoxic” value was inactive: 0.823%. For Fc1ccccc1-c1nnc2c3ccccc3nc(N3CCOCC3)n12, the “activity change, negative = cytotoxic” value was inactive: 7.4%. In the case of Cc1ccc(-c2cc(Cc3ccncc3)c(=O)[nH]n2)cc1, the “activity change, negative = cytotoxic” value is reported as inactive: -0.512%. In the case of CCc1ccc(CNC(=O)C2CC(=O)N(C3CCCC3)C2)cc1 (stereo not drawn), the “activity change, negative = cytotoxic” value is reported as inactive: -0.766%. For COCc1c(C(=O)N2CCN(Cc3ccc4c(c3)OCO4)CC2)oc2ccccc12, the activity change, negative = cytotoxic was inconclusive: -24.8%. For O=C1c2ccccc2C(=O)N1/N=C/c1ccc(O)c(O)c1, the “activity change, negative = cytotoxic” value was inactive: -0.981%. With O=C(Nc1ccc(N2CCOCC2)c(S(=O)(=O)Nc2ccccc2Cl)c1)c1ccccc1 the Potency was inconclusive: 32.6 µM [cytotoxic, single point]. With CCN1C(=O)[C@H]2[C@@H](c3ccc(-c4cccc(Cl)c4)c(OC)c3)N[C@@](Cc3ccccc3)(C(=O)OC)[C@H]2C1=O the Potency was inconclusive: 11.6 µM [cytotoxic, partial curve]. For Clc1ccc2[nH]c3c(c2c1)CCc1cn[nH]c1-3, the Potency was inconclusive: 29.1 µM [cytotoxic, single point]. In the case of Cc1ccc(-c2noc(CSc3nnnn3-c3ccccc3)n2)cc1, the Potency is reported as inconclusive: 29.1 µM [rising, single point]. In the case of O=S(=O)(CC(CN1CCCC1)N1CCCC1)c1ccc2ccccc2c1 (stereo not drawn), the Potency is reported as active: 11.6 µM. In the case of COc1ccc(-c2cn3cccnc3n2)cc1Br, the Potency is reported as inconclusive: 29.1 µM [rising, single point]. In the case of CSCCC(NS(=O)(=O)c1ccccc1F)C(=O)NCc1cccnc1 (stereo not drawn), the Potency is reported as inconclusive: 29.1 µM [rising, single point]. For O=c1[nH]c(=S)c2[nH]cnc2[nH]1, the “activity change, negative = cytotoxic” value was inactive: -17.3%. In the case of CCOC(=O)C(C)C(C)=O (stereo not drawn), the Potency is reported as inconclusive: 206 µM [cytotoxic, full curve, poor fit]. In the case of Cc1ccc(S(=O)(=O)Nc2cccc(-c3cn4ccsc4n3)c2)cc1, the Potency is reported as inconclusive: 29.1 µM [cytotoxic, single point]. In the case of CN1C(=O)c2ccccc2Sc2ccc(NC(=O)COc3ccc(Cl)cc3)cc21, the Potency is reported as inconclusive: 23.1 µM [cytotoxic, single point]. In the case of COCCNc1ccc(-c2nc(-c3cccc(C)c3)no2)cc1[N+](=O)[O-], the “activity change, negative = cytotoxic” value is reported as inactive: 8.91%. In the case of O=C(CSc1nnc(C2CC2)n1C1CC1)Nc1cccc(Br)c1, the Potency is reported as inconclusive: 10.3 µM [cytotoxic, partial curve].
